Reference: patent publication EP4713368A1
These are yes or no findings as the source states them, for the method shown. Some entries that bind do so weakly or less than the wild type.

Protein sequences, listed by entry. Tags and fused reporters are not part of them. Lines headed by an entry give the natural chain unless they say otherwise; changes in a name come on top.
UniProt P10747: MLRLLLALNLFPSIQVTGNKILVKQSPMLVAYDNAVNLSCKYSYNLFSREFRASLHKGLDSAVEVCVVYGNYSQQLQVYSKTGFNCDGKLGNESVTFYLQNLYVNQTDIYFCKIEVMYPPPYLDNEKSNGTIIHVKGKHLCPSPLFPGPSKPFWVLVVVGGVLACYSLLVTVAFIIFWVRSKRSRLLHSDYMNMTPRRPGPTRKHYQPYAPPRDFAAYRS

Legend:
[1] = biological target: human CD28 (human) (UniProt P10747); assay: selection from yeast-presented heavy chain-only libraries (HCAb format)
[2] = biological target: human CD28 (human) (UniProt P10747); assay: selection from yeast-presented synthetic human antibody libraries
[3] = biological target: human CD28 (human) (UniProt P10747); assay: affinity maturation of CD28-binding antibodies (Example 10: Discovery of Additional Antibodies that Bind to CD28); the name 83f stands at the start of paragraph 898
[4] = biological target: human CD28 (human) (UniProt P10747); assay: selection from yeast-presented libraries of heavy chains and CD3-binding light chains

Row | Binder | binding [1] | binding [4] | further results
1 | Ab No. 74 (antibody, V domains shown) VH: EVQLLESGGGLVQPGGSLRLSCAASGFTFDSYHMSWVRQAPGKERELVSAISGSGGSTYYADSVKGRFTISRDNSKNTLYLQMNSLRAEDTAVYYCAKIDTIVVGDDYEEYDFGSWGQGTQVTVSS | binds | – | –
2 | Ab No. 55 (antibody, V domains shown) VH: QLQLQESGPGLVKPSETLSLTCTVSGGSISSSDYYWGWIRQPPGKGLEWIGSIYYSGSTYYNPSLKSRVTISVDTSKNQFSLKLSSVTAADTAVYYCVRSYYYVWGASDYWGQGTLVTVSS VL: QSALTQPRSVSGSPGQSVTISCTGTSSDVGGYNYVSWYQQHPGKAPKLLIYDVSKRPSGVPDRFSGSKSGNTASLTISGLQAEDEADYYCSSYADRVTFRAFGGGTKLTVL | – | – | binding [2]: binds
3 | Ab No. 83f (antibody, V domains shown) VH: EVQLLESGGGLVQPGGSLRLSCAASGSTFENFAMTWYRQAPGKERELVSAISAQGGSTYYADSVKGRFTISRDNSKNTLYLQMNSLRAEDTAVYYCNARRYQSSGGDVWGQGTQVTVSS | – | – | binding [3]: binds
4 | Ab No. 73 (antibody, V domains shown) VH: EVQLLESGGGLVQPGGSLRLSCAASGFTFSDFTMSWFRQAPGKERELVSFIGSKAYGGTTEYADSVKGRFTISRDNSKNTLYLQMNSLRAEDTAVYYCAASRYAAPPIDLREDYWGQGTQVTVSS | binds | – | –
5 | Ab No. 54 (antibody, V domains shown) VH: QLQLQESGPGLVKPSETLSLTCTVSGGSISSSSYYWGWIRQPPGKGLEWIGSIYYSGSTYYNPSLKSRVTISVDTSKNQFSLKLSSVTAADTAVYYCTSQGAYLVDYWGQGTLVTVSS VL: QSALTQPRSVSGSPGQSVTISCTGTSSDVGGYNYVSWYQQHPGKAPKLLIYDVSKRPSGVPDRFSGSKSGNTASLTISGLQAEDEADYYCGSYAGFTSVVFGGGTKLTVL | – | – | binding [2]: binds
6 | Ab No. 59 (antibody, V domains shown) VH: QVQLVQSGAEVKKPGASVKVSCKASGYTFSSYGISWVRQAPGQGLEWMGWISAASGDTDYAQKLQGRVTMTTDTSTSTAYMELRSLRSDDTAVYYCARDYYSYVGDYYGMDVWGQGTTVTVSS VL: DIVMTQSPDSLAVSLGERATINCKSSQSLLNARTGKNYLAWYQQKPGQPPKLLIYWASTRESGVPDRFSGSGSGTDFTLTISSLQAEDVAVYYCKQSYSLRTFGGGTKVEIK | – | binds | –
7 | Ab No. 65 (antibody, V domains shown) VH: EVQLVESGGGLVQPGGSLRLSCAASGFTFRSYSMNWVRQAPGKGLEWVSYIDSSSSTIYYADSVKGRFTISRDNAKNSLYLQMNSLRAEDTAVYYCARDTPMGWGAFDIWGQGTTVTVSS VL: DIVMTQSPDSLAVSLGERATINCKSSQSLLNARTGKNYLAWYQQKPGQPPKLLIYWASTRESGVPDRFSGSGSGTDFTLTISSLQAEDVAVYYCKQSYSLRTFGGGTKVEIK | – | binds | –
8 | Ab No. 66 (antibody, V domains shown) VH: EVQLVESGGGLVQPGGSLRLSCAASGFTFSSYSMNWVRQAPGKGLEWVSYIDSSSSTIYYADSVKGRFTISRDNAKNSLYLQMNSLRAEDTAVYYCARDTPMGWGAFDIWGQGTLVTVSS VL: DIVMTQSPDSLAVSLGERATINCKSSQSLLNARTGKNYLAWYQQKPGQPPKLLIYWASTRESGVPDRFSGSGSGTDFTLTISSLQAEDVAVYYCKQSYSLRTFGGGTKVEIK | – | binds | –
9 | Ab No. 62 (antibody, V domains shown) VH: EVQLVESGGGLVQPGGSLRLSCAASGFTFDSYSMNWVRQAPGKGLEWVSYISSSSDTIFYADSVKGRFTISRDNAKNSLYLQMNSLRAEDTAVYYCARDRPLGWGPFDIWGQGTMVTVSS VL: DIVMTQSPDSLAVSLGERATINCKSSQSLLNARTGKNYLAWYQQKPGQPPKLLIYWASTRESGVPDRFSGSGSGTDFTLTISSLQAEDVAVYYCKQSYSLRTFGGGTKVEIK | – | binds | –
10 | Ab No. 63 (antibody, V domains shown) VH: EVQLVESGGGLVQPGGSLRLSCAASGFTFDSYSMNWVRQAPGKGLEWVSYIDSSSSTILYADSVKGRFTISRDNAKNSLYLQMNSLRAEDTAVYYCARDRPLGWGPFDIWGQGTMVTVSS VL: DIVMTQSPDSLAVSLGERATINCKSSQSLLNARTGKNYLAWYQQKPGQPPKLLIYWASTRESGVPDRFSGSGSGTDFTLTISSLQAEDVAVYYCKQSYSLRTFGGGTKVEIK | – | binds | –
11 | Ab No. 69 (antibody, V domains shown) VH: QLQLQESGPGLVKPSETLSLTCTVSGGSISSSNYYWGWIRQPPGKGLEWIGYIYYPASTYYNPSLKSRVTISVDTSKNQFSLKLSSVTAADTAVYYCARGTNSIRGTGAFDIWGQGTMVTVSS VL: DIVMTQSPDSLAVSLGERATINCKSSQSLLNARTGKNYLAWYQQKPGQPPKLLIYWASTRESGVPDRFSGSGSGTDFTLTISSLQAEDVAVYYCKQSYSLRTFGGGTKVEIK | – | binds | –
12 | Ab No. 64 (antibody, V domains shown) VH: EVQLVESGGGLVQPGGSLRLSCAASGFTFPAYSMNWVRQAPGKGLEWVSYISSSSDTIYYADSVKGRFTISRDNAKNSLYLQMNSLRAEDTAVYYCARDTPMGWGAFDIWGQGTMVTVSS VL: DIVMTQSPDSLAVSLGERATINCKSSQSLLNARTGKNYLAWYQQKPGQPPKLLIYWASTRESGVPDRFSGSGSGTDFTLTISSLQAEDVAVYYCKQSYSLRTFGGGTKVEIK | – | binds | –
13 | Ab No. 67 (antibody, V domains shown) VH: EVQLVESGGGLVQPGGSLRLSCAASGFTFERYSMNWVRQAPGKGLEWVSYISSQSDTIYYADSVKGRFTISRDNAKNSLYLQMNSLRAEDTAVYYCARDTPMGWGAFDVWGQGTLVTVSS VL: DIVMTQSPDSLAVSLGERATINCKSSQSLLNARTGKNYLAWYQQKPGQPPKLLIYWASTRESGVPDRFSGSGSGTDFTLTISSLQAEDVAVYYCKQSYSLRTFGGGTKVEIK | – | binds | –
14 | Ab No. 71 (antibody, V domains shown) VH: EVQLLESGGGLVQPGGSLRLSCAASGFTFDNYAMSWVRQAPGKERELVSFISGSGGSTYYADSVKGRFTISRDNSKNTLYLQMNSLRAEDTAVYYCAAHASGSYYLDVSRDYDADYWGQGTQVTVSS | binds | – | –
15 | Ab No. 72 (antibody, V domains shown) VH: EVQLLESGGGLVQPGGSLRLSCAASGFTFSAYAMSWVRQAPGKERELVSIISGSGGSTYYADSVKGRFTISRDNSKNTLYLQMNSLRAEDTAVYYCAAHASGSYYLDVSRDYDADYWGQGTQVTVSS | binds | – | –
16 | Ab No. 75 (antibody, V domains shown) VH: EVQLLESGGGLVQPGGSLRLSCAASGFTFSSYAMSWYRQAPGKERELVSAISGSGGSTYYADSVKGRFTISRDNSKNTLYLQMNSLRAEDTAVYYCARIIAGATGTFGYGLDVWGQGTQVTVSS | binds | – | –
17 | Ab No. 56 (antibody, V domains shown) VH: QVQLQESGPGLVKPSETLSLTCTVSGGSISSYYWSWIRQPPGKGLEWIGSIYYSGSTNYNPSLKSRVTISVDTSKNQFSLKLSSVTAADTAVYYCARTEVGATRPREDFHHWGQGTLVTVSS VL: QSVLTQPPSVSAAPGQKVTISCSGSSSNIGNNYVSWYQQLPGTAPKLLIYDNNKRPSGIPDRFSGSKSGTSATLGITGLQTGDEADYYCGTWDNPLGWVFGGGTKLTVL | – | – | binding [2]: binds

Continued, in another order:

Row | binding [1] | binding [4] | Binder | further results
18 | binds | – | Ab No. 84 (antibody, V domains shown) VH: EVQLLESGGGLVQPGGSLRLSCAASGFTFSDYDMTWVRQAPGKERELVSSISSSSTDIYYADSVKGRFTISRDNSKNTLYLQMNSLRAEDTAVYYCNAWKKFSHPQVATEDVWGQGTQVTVSS | –
19 | binds | – | Ab No. 76 (antibody, V domains shown) VH: EVQLLESGGGLVQPGGSLRLSCAASGFTFDAYAMSWVRQAPGKERELVSAITDEGSTNYADSVKGRFTISRDNSKNTLYLQMNSLRAEDTAVYYCAVEPWGRIWGQGTQVTVSS | –
20 | binds | – | Ab No. 77 (antibody, V domains shown) VH: EVQLLESGGGLVQPGGSLRLSCAASGFTFSSYAMSWVRQAPGKERELVSVISSEGSTDYADSVKGRFTISRDNSKNTLYLQMNSLRAEDTAVYYCAVEPWGRIWGQGTQVTVSS | –
21 | binds | – | Ab No. 79 (antibody, V domains shown) VH: EVQLLESGGGLVQPGGSLRLSCAASGFTFDHYAMSWFRQAPGKERELVSAISGPGDSTYYADSVKGRFTISRDNSKNTLYLQMNSLRAEDTAVYYCHARGIAARPEGAPRADFGWGQGTQVTVSS | –
22 | binds | – | Ab No. 82 (antibody, V domains shown) VH: EVQLLESGGGLVQPGGSLRLSCAASGFTFDSFAMSWFRQAPGKERELVSAISGSGGSTYYADSVKGRFTISRDNSKNTLYLQMNSLRAEDTAVYYCNARGGGLAGFFNYWGQGTQVTVSS | –
23 | binds | – | Ab No. 80 (antibody, V domains shown) VH: EVQLLESGGGLVQPGGSLRLSCAASGFDFSSFAMSWFRQAPGKERELVSAISGSGSETYYADSVKGRFTISRDNSKNTLYLQMNSLRAEDTAVYYCHARGIGLESQVSYYWGQGTQVTVSS | –
24 | binds | – | Ab No. 81 (antibody, V domains shown) VH: EVQLLESGGGLVQPGGSLRLSCAASGFTFDKYSMNWYRQAPGKERELVSAISGSGGDTYYADSVKGRFTISRDNSKNTLYLQMNSLRAEDTAVYYCHARGVIVVEPGEYELNFGWGQGTQVTVSS | –
